Laboratory results taken from article PMC3384007, “Crystal Structure of the VapBC Toxin–Antitoxin Complex from Shigella flexneri Reveals a Hetero-Octameric DNA-Binding Assembly” (Journal of Molecular Biology, 2011).
These are yes or no findings as the source states them, for the method shown. Some binding calls cover weakened binding; strength is not graded here. Sequences can lack the tags named with a protein.

What was measured:
[1] = target: T1, Shigella flexneri VapB antitoxin (His6-VapB) (Shigella flexneri) (UniProt O06663); assay: SEC; purified VapBC complex on a 24-ml Superdex 200 10/300 GL column; peak at 12.7 ml, about 105 kDa, fitting a VapB4C4 hetero-octamer; both purified
T1 sequence: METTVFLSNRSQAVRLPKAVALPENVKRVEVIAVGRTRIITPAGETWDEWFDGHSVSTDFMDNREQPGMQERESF

[2] = target: T1, Shigella flexneri VapB antitoxin (His6-VapB) (Shigella flexneri); assay: cross-linking; purified VapBC complex 1 mg/ml in 100 mM sodium borate pH 9.1 with dimethyl superimidate (DMSI), aliquots after 5-120 min, 15% Coomassie-stained SDS-PAGE; both purified
[3] = target: T1, Shigella flexneri VapB antitoxin (His6-VapB) (Shigella flexneri); assay: crystal structure; His6-VapB:VapC complex, 7 mg/ml; crystals in 0.1 M Bis-Tris pH 5.5, 1 M ammonium sulfate, 0.5% (v/v) PEG 3350, 19 °C; 2.7 Å; four copies of each protein in the asymmetric unit (VapB4C4); both purified

Measured: binding

B1: Shigella flexneri VapC toxin (MvpT) (natural protein)
chain: MLKFMLDTNICIFTIKNKPASVRERFNLNQGKMCISSVTLMELIYGAEKSQMPERNLAVIEGFVSRIDVLDYDAAAATHTGQIRAELARQGRPVGPFDQMIAGHARSRGLIIVTNNTREFERVGGLRTEDWS
notes: Untagged in this construct, purified through His6-VapB; also called PIN domain
binds: all assays above
